Assay results published in patent US20240293367A1, “METHODS OF TREATING DISORDERS WITH A […]” (Cybin IRL Limited, priority 2023, published 2024).
Where two headings read alike, the source gives them in different places. For some of these results: The name of at least one read-out is uncertain. For some of these results: At least one compound was matched to its structure with a doubt left.

Tests used:
[1] = system: MDD patients; conditions: 25 mg, three-weeks postdose, Goodwin et al. 2022; cited from earlier work
[2] = cited from earlier work
[3] = Phase I/IIa clinical PK of oral psilocin-d10, plasma, noncompartmental analysis (Cohorts 1-6); assay type: in vivo, human; conditions: 12 mg oral, Cohorts 4 and 5 MDD, Day 1 and Day 22
Procedure: Phase I/IIa, Randomized, Double-Blind, Placebo-Controlled Study which assesses the safety, tolerability, pharmacokinetics, and pharmacodynamics of multiple ascending oral doses of psilocin-d10 in participants with and without MDD (ClinicalTrials.gov Identifier: NCT05385783). All subjects receiving study medication in Cohorts 1-6 received oral psilocin-d10 powder in solution (0.1M citric acid+Tang orange drink, 30 mL dose in a dose cup) and subjects receiving placebo received a similar volume of Tang orange drink without the psilocin-d10 study drug. All subjects receiving study medication in the relative bioavailability (BA) cohort received powder-filled capsules containing psilocin-d10 benzenesulfonate salt by ingestion with approximately 240 mL room temperature water, or oral psilocin-d10 powder in solution (0.1M citric acid+Tang orange drink, 30 mL dose in a dose cup) in a cross-over design. Psilocin-d10 for the powder in solution dosage form was manufactured by Patheon Pharma Services, with an isotopic purity of 79.89%. Psilocin-d10 benzenesulfonate salt for the powder-filled capsule dosage form was manufactured by Patheon Pharma Services, with an isotopic purity of 85.20%.
Cohorts 1, 4, 5, and 6 of the study was comprised of participants with MDD. Cohorts 2, 3, and the relative BA cohort of the study were comprised of normal healthy volunteers (NHV). […]

Row | Structure (SMILES) | MADRS CFB reduction over 1 mg psilocybin (control) [1] | Reported/Simulated mean VAS - Any drug effect ([2]; 25 mg psilocybin) | Reported/Simulated mean VAS - Any drug effect ([2]; 30 mg psilocybin) | Vz/F Mean (SD) [3]
1 | CN(C)CCc1c[nH]c2cccc(OP(=O)(O)O)c12 [psilocybin] | −6.6 | 60 | 80 | 
2 | [2H]C([2H])([2H])N(C([2H])([2H])[2H])C([2H])([2H])C([2H])([2H])c1c[nH]c2cccc(O)c12 [psilocin-d10, 3-(2-(bis(methyl-d3)amino)ethyl-1,1,2,2-d4)-1H-indol-4-ol] |  |  |  | 666.65 (226.84) L
